Test system: HLA molecules from shock-frozen tissue samples
Test: Identification and relative quantitation of tumor associated peptides presented on the cell surface by LC-MS (XPRESIDENT)
Design: species or system human
Conditions: all indications on which the peptide was identified at least once, independent of the HLA typing of the sample or the antibody used

In the case of “134 (MPCTTILRI; listed as Homo sapiens) [compound 134]”, the “Peptide presentation on cancer types” value was “AML, CLL, CRC, GC, HCC, HNSCC, MEL, NHL, NSCLC, OSCAR, RCC, PACA, PRCA, UBC, UEC”.
“54 (ASSPVILLL; listed as Homo sapiens) [compound 54]” was tested, and the “Peptide presentation on cancer types” value was “HCC, HNSCC, MEL, NSCLC, OC, UBC, UEC”.
With “74 (TLNVLITL; listed as Homo sapiens) [compound 74]” the “Peptide presentation on cancer types” value was “CRC, GC, MEL, NSCLC, OC, RCC”.
With “153 (ALNLSRLTV; listed as Homo sapiens) [compound 153]” the “Peptide presentation on cancer types” value was “HCC, NSCLC, OSCAR, MEL, PRCA, HNSCC, NHL, RCC, CRC, GC, OC, CLL”.
For “205 (SLIPIVPFKS; listed as Homo sapiens) [compound 205]”, the “Peptide presentation on cancer types” value was “CLL, NHL”.
“152 (KIMEILNLK; listed as Homo sapiens) [compound 152]” was tested, and the “Peptide presentation on cancer types” value was “AML, GC, MEL, NHL, NSCLC, OC, OSCAR, RCC, UBC, UEC”.
“129 (IPISIFKMA; listed as Homo sapiens) [compound 129]” was tested, and the “Peptide presentation on cancer types” value was “CCC, HCC, NHL, PACA, RCC, SCLC, UBC”.
With “45 (SLFPISLTV; listed as Homo sapiens) [compound 45]” the “Peptide presentation on cancer types” value was “HNSCC, NSCLC, SCLC”.
In the case of “4 (IQAPALLKV; listed as Homo sapiens) [compound 4]”, the “Peptide presentation on cancer types” value was “CLL, CRC, NHL”.
In the case of “49 (IYFHLNNWTI; listed as Homo sapiens) [compound 49]”, the “Peptide presentation on cancer types” value was “HNSCC, NSCLC”.
“68 (TVDKGELLY; listed as Homo sapiens) [compound 68]” was tested, and the “Peptide presentation on cancer types” value was “BRCA, GBC, GC, HCC, HNSCC, NSCLC, OC, OSCAR, PACA, RCC, UBC”.
For “178 (SLFGGLFTR; listed as Homo sapiens) [compound 178]”, the “Peptide presentation on cancer types” value was “CCC, GBC, GC, HNSCC, NSCLC, UBC”.
With “200 (GLLGTLRVL; listed as Homo sapiens) [compound 200]” the “Peptide presentation on cancer types” value was “GBC, HCC, NSCLC, UBC”.
With “99 (RADEEQASF; listed as Homo sapiens) [compound 99]” the “Peptide presentation on cancer types” value was “CRC, NSCLC, OSCAR, PACA, UBC, UEC”.
With “167 (FALGPIIKQL; listed as Homo sapiens) [compound 167]” the “Peptide presentation on cancer types” value was “GBC, MEL, NSCLC, OSCAR, PRCA, UEC”.
In the case of “168 (AEGPDHHSL; listed as Homo sapiens) [compound 168]”, the “Peptide presentation on cancer types” value was “AML, CRC, GBC, GC, HCC, HNSCC, OC, RCC”.
For “201 (VWILQKVNLAF; listed as Homo sapiens) [compound 201]”, the “Peptide presentation on cancer types” value was “CCC, CRC, GBC, HCC, HNSCC, PRCA, UBC”.

Reference: US11957716B2 (Immatics Biotechnologies GmbH, priority 2021, dated 2024)
